Laboratory results taken from the supplement of paper PMC10849652.
This is one part of the list.

Sequences of proteins named here, by UniProt entry; tags and fusion partners are left off. A change or cut given only in a name is not applied to a line headed by its entry.
UniProt Q9Y2P4: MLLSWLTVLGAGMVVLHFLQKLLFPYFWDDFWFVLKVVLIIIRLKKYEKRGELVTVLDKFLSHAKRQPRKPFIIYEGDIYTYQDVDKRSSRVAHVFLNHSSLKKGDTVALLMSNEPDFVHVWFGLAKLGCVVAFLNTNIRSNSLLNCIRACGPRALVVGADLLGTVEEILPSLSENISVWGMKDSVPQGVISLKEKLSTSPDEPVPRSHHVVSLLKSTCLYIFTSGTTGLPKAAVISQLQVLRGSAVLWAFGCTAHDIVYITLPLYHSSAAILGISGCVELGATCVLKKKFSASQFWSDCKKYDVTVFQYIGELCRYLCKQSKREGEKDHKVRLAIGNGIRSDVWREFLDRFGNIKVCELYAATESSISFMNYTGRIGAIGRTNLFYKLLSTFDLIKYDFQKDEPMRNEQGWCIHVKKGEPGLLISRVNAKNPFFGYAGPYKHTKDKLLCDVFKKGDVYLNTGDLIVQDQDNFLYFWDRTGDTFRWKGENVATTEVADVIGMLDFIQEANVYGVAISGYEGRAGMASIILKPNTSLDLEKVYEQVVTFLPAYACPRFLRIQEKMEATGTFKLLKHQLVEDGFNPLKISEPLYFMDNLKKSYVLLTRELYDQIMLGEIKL
UniProt O95258: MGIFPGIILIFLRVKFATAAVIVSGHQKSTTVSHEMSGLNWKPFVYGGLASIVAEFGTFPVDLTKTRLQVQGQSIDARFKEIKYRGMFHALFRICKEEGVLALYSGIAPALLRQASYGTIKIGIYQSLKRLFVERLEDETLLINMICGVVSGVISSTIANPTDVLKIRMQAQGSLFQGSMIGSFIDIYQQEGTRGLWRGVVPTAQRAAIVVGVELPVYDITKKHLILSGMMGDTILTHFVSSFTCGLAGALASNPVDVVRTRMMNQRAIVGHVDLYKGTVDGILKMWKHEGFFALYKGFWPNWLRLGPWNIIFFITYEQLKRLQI
UniProt Q9H015: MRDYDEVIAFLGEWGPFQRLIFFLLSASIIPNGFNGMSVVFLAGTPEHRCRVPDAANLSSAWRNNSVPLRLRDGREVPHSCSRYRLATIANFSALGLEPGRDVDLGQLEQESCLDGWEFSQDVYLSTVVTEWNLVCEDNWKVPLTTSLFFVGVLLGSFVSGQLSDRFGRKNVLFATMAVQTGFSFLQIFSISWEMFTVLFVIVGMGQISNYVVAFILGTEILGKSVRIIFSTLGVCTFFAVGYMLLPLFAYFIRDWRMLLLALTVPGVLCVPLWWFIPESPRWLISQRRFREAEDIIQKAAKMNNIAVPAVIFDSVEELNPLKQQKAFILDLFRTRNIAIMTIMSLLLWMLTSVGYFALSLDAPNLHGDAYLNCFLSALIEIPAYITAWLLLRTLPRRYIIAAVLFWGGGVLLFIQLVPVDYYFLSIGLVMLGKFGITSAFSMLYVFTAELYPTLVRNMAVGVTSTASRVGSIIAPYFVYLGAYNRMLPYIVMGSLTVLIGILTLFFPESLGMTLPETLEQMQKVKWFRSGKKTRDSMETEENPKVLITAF
UniProt Q9NTN3, whole entry, looked up: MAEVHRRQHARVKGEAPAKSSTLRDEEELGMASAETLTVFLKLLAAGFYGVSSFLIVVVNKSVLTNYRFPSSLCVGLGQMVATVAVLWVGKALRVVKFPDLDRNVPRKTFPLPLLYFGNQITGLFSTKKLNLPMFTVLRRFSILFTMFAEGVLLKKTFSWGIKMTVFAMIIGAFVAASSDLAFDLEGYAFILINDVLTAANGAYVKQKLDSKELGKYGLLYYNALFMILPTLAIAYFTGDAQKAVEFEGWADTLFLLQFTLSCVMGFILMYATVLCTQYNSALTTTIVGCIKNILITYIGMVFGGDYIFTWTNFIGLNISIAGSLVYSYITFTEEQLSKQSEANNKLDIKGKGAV
UniProt Q9NUM3: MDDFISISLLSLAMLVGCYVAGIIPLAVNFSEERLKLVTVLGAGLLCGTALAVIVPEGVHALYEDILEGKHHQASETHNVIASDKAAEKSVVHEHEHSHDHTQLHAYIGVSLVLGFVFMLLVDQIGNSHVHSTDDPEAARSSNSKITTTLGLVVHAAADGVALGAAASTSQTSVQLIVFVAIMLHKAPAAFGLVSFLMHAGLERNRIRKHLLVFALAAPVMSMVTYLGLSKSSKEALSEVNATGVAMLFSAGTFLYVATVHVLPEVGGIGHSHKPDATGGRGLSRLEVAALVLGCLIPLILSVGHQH
UniProt Q96K37: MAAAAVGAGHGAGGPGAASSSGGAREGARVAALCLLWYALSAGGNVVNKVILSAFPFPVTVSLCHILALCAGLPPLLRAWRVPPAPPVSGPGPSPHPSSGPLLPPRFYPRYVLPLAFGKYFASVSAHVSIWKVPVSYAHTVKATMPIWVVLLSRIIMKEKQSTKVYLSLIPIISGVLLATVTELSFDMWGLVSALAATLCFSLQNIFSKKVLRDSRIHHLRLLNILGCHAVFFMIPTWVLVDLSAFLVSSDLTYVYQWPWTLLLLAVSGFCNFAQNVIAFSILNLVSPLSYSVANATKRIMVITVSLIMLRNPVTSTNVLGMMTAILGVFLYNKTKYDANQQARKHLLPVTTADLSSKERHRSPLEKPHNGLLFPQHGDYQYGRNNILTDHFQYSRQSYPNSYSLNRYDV
UniProt P43003, whole entry, looked up: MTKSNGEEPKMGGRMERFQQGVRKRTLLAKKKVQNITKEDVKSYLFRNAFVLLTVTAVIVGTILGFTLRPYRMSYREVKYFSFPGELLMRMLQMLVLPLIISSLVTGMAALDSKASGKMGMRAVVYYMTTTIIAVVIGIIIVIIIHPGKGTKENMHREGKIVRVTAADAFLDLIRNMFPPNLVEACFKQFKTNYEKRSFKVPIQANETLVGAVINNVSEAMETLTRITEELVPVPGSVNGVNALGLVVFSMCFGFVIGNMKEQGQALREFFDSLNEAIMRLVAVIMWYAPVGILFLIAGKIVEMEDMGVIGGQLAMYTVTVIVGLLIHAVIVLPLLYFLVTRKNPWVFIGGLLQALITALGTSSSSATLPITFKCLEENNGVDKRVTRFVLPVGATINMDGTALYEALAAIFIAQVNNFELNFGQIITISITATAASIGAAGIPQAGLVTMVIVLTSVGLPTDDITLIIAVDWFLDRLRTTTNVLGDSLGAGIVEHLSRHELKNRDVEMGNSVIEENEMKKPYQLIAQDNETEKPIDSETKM
UniProt Q96NT5: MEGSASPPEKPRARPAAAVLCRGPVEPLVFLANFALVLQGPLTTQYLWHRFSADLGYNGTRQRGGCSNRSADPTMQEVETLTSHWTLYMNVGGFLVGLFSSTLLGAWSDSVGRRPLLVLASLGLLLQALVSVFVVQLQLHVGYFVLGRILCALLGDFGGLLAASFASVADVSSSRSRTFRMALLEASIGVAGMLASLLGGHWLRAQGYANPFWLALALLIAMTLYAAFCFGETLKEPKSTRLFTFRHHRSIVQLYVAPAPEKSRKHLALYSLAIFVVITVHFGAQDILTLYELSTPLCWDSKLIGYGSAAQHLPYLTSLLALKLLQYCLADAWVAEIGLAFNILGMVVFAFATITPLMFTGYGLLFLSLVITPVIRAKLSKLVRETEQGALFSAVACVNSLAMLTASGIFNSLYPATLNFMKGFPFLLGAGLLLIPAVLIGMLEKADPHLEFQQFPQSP
UniProt O15431: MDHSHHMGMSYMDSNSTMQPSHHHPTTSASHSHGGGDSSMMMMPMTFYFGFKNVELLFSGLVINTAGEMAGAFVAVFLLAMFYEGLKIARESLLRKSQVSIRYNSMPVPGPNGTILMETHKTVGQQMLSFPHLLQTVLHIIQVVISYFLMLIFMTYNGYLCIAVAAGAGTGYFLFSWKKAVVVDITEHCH
UniProt F5GZS6: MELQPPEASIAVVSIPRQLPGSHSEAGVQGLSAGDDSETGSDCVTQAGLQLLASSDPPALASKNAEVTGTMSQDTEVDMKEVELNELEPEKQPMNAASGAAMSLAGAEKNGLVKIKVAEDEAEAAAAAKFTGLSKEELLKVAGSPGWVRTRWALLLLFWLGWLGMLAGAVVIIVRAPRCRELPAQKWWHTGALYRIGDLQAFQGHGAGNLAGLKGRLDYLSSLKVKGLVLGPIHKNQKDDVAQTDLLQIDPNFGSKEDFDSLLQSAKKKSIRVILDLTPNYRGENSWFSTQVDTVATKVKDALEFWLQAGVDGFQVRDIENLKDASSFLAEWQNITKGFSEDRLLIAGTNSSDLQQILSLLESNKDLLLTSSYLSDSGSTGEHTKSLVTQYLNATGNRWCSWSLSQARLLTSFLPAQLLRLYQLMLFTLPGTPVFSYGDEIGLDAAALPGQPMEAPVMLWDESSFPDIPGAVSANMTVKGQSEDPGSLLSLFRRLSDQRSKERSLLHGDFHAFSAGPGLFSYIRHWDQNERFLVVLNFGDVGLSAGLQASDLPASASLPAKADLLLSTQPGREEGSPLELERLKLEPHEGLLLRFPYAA
UniProt Q6P1K1: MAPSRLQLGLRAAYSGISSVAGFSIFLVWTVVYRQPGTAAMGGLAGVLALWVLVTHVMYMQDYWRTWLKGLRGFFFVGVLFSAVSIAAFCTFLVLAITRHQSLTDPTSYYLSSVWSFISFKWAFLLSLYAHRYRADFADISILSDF
UniProt Q96A46: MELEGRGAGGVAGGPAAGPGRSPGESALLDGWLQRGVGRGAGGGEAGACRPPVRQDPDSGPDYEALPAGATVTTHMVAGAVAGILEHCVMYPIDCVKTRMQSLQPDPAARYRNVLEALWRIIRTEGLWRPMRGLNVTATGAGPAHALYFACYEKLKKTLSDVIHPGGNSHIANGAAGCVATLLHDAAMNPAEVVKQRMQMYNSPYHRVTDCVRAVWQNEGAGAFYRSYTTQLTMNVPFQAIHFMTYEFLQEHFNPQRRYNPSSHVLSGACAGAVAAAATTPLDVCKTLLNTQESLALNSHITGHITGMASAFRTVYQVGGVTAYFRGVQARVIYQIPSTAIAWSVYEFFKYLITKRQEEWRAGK
UniProt Q8WV83: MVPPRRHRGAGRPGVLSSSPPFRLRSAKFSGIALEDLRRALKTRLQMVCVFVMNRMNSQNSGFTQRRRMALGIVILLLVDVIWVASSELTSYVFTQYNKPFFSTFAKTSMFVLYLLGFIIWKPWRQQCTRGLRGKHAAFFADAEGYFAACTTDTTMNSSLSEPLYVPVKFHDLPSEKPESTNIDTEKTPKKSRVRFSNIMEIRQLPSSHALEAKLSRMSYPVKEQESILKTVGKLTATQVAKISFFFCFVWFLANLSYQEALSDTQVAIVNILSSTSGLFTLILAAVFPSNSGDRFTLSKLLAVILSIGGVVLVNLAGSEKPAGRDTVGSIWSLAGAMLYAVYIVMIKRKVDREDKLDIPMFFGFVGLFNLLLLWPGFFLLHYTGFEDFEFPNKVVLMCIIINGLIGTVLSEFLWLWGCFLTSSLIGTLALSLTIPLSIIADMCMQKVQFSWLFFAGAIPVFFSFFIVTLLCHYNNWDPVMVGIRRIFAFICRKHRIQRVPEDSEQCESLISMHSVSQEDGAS
UniProt Q9UGH3: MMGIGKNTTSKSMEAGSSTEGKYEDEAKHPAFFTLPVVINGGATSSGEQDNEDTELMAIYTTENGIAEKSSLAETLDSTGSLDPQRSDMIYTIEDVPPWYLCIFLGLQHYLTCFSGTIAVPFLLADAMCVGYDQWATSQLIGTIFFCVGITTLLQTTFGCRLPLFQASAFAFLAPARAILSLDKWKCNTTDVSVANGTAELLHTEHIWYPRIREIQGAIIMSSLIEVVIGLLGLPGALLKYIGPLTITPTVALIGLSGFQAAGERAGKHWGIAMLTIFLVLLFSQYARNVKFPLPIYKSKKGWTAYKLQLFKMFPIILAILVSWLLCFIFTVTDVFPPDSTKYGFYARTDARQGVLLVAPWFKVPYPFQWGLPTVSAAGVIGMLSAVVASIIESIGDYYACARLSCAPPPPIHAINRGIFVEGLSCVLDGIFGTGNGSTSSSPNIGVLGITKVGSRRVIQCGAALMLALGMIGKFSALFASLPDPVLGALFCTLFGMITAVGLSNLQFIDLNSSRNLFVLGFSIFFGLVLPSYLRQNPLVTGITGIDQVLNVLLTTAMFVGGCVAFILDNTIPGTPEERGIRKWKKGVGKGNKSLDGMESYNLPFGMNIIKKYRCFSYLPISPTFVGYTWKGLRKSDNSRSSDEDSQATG
UniProt Q9HAB3: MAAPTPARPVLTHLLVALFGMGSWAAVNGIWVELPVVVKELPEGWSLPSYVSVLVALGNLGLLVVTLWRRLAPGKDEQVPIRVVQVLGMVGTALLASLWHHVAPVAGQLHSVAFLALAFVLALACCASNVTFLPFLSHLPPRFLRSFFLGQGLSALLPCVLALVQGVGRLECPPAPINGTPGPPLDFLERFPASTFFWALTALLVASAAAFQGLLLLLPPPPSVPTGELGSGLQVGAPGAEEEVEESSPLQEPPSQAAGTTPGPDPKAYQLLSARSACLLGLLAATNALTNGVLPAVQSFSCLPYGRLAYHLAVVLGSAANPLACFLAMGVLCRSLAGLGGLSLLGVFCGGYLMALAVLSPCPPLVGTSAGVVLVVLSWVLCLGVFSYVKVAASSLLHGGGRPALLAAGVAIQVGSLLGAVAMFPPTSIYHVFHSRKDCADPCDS

Each target was assayed with NCC(=O)Nc1ccc(-n2nc(C(F)(F)F)cc2-c2ccc3c(ccc4ccccc43)c2)cc1 (assay: log2 fold change, soluble protein after heating vs DMSO (PISA); higher = thermal stabilisation; K562 cells, 10 uM, 30 min; active = over 0.2 and 3.5 SD of the protein, either way, in both replicates (recomputed)).
Procedure, shortened: (§1)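 Soluble protein was quantified by TMTpro 16plex LC-MS/MS after channel sums were equalised. It was obtained as the supernatant after 21,000xg for 90 min from pooled aliquots of K562 cells (2×10^6 cells/mL, 10 μM compound, 30 min) heated for 3 min across 48°C-58°C and extracted in PBS with 0.5% NP-40 at 4°C. Thermal stability values are relative to control samples and come from duplicates. They are given as log2 fold changes.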

Target | log2 fold change
SLC26A2 (UniProt P50443) | inactive: -0.007
SLC27A6 (UniProt Q9Y2P4) | inactive: -0.022
SLC25A14 isoform 3 (UniProt O95258) | inactive: 0.037
SLC22A4 (UniProt Q9H015) | inactive: 0.029
SLC35D1 (UniProt Q9NTN3) | inactive: 0.027
SLC39A9 (UniProt Q9NUM3) | inactive: -0.036
SLC35E1 (UniProt Q96K37) | inactive: -0.075
SLC1A3 (UniProt P43003) | inactive: -0.055
SLC25A35 (UniProt Q3KQZ1) | inactive: 0.081
SLC46A1 (UniProt Q96NT5) | inactive: 0.137
SLC22A5 isoform 3 (UniProt O76082) | inactive: 0.056
SLC15A4 (UniProt Q8N697) | inactive: 0.011
SLC35C1 (UniProt Q96A29) | inactive: 0.037
SLC31A1 (UniProt O15431) | inactive: -0.028
SLC3A2 (UniProt F5GZS6) | inactive: -0.056

The targets below were run with Nc1ccccc1NC(=O)c1ccc(CNC(=O)OCc2cccnc2)cc1 [entinostat] in the same assay as above.
Procedure, shortened: as §1

Target | log2 fold change
SLC48A1 (UniProt Q6P1K1) | inactive: 0.073
SLC25A28 (UniProt Q96A46) | inactive: 0.105
SLC43A3 (UniProt Q8NBI5) | inactive: -0.044
SLC35F5 (UniProt Q8WV83) | inactive: -0.113
SLC41A1 (UniProt Q8IVJ1) | inactive: 0.109
SLC3A2 (UniProt F5H867) | inactive: -0.084
SLC66A3 (UniProt Q8N755) | inactive: -0.159
SLC23A2 (UniProt Q9UGH3) | inactive: -0.063

What follows are targets tested with O=C(CCCCCCC(=O)Nc1ccccc1)NO [vorinostat] in the same assay as above.
Procedure, shortened: as §1

Target | log2 fold change
SLC22A23 (UniProt A1A5C7) | inactive: 0.137
SLC39A1 (UniProt Q9NY26) | inactive: 0.181
SLC26A2 (UniProt P50443) | inactive: 0.03
SLC25A14 isoform 3 (UniProt O95258) | inactive: 0.033
SLC52A2 (UniProt Q9HAB3) | inactive: 0.041
SLC35E1 (UniProt Q96K37) | inactive: 0.004
SLC1A3 (UniProt P43003) | inactive: 0.143
SLC25A35 (UniProt Q3KQZ1) | inactive: 0.015
SLC46A1 (UniProt Q96NT5) | inactive: -0.005
SLC35F5 (UniProt Q8WV83) | inactive: -0.101
SLC41A1 (UniProt Q8IVJ1) | inactive: 0.134
SLC3A2 (UniProt F5H867) | inactive: -0.079
SLC22A5 isoform 3 (UniProt O76082) | inactive: 0.035
SLC35C1 (UniProt Q96A29) | inactive: -0.004
SLC31A1 (UniProt O15431) | inactive: -0.252
